Experiment in all cases: cryo-EM structure; native I + III2 supercomplex isolated from digitonin-solubilised Arabidopsis mitochondria (sucrose gradient, Superose 6 in GDN); 30 mM Tris-HCl pH 7.4, 60 mM NaCl, 0.02% GDN; 2.36 Å for the whole supercomplex, 2.03 Å after multibody refinement, 1.9 Å after density modification; both purified
For assay [1], the target named is T1, complex III subunit QCR6-1 (Arabidopsis thaliana (endogenous in cell suspension culture)) (UniProt Q0WWE3).
T1 sequence: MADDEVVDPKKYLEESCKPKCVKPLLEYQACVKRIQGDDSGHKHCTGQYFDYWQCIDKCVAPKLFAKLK

Sequences of proteins named here, by UniProt entry; tags and fusion partners are left off. A change or cut given only in a name is not applied to a line headed by its entry.
UniProt F4HTR4: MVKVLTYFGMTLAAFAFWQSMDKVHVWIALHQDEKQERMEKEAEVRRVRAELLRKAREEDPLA

Assay [2] has as its target T2, complex I core subunit ND6 (Arabidopsis thaliana (endogenous in cell suspension culture)) (UniProt P60497).
T2 sequence: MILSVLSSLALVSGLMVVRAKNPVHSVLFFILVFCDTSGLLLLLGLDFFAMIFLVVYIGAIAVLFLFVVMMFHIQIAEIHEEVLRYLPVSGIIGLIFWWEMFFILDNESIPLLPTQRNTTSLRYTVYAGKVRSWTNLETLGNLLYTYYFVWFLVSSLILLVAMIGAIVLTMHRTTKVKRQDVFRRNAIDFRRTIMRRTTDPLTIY

Assay [3] has as its target T3, complex I core subunit ND2 (Arabidopsis thaliana (endogenous in cell suspension culture)) (UniProt O05000).
T3 sequence: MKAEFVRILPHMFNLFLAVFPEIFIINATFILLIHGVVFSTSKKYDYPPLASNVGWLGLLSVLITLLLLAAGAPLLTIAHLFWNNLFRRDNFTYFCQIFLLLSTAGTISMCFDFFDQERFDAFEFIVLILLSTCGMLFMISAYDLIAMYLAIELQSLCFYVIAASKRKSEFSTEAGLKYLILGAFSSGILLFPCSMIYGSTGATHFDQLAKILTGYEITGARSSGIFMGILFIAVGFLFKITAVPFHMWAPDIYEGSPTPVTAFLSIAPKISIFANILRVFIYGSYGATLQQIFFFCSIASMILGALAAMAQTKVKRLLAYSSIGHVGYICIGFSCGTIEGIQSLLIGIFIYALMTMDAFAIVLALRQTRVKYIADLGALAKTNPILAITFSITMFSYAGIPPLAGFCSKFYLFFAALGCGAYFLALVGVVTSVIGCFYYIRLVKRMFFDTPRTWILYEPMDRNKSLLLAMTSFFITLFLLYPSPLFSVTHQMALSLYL

Assay [4] concerns the target T4, complex I core subunit ND5 (Arabidopsis thaliana (endogenous in cell suspension culture)) (UniProt P29388).
T4 sequence: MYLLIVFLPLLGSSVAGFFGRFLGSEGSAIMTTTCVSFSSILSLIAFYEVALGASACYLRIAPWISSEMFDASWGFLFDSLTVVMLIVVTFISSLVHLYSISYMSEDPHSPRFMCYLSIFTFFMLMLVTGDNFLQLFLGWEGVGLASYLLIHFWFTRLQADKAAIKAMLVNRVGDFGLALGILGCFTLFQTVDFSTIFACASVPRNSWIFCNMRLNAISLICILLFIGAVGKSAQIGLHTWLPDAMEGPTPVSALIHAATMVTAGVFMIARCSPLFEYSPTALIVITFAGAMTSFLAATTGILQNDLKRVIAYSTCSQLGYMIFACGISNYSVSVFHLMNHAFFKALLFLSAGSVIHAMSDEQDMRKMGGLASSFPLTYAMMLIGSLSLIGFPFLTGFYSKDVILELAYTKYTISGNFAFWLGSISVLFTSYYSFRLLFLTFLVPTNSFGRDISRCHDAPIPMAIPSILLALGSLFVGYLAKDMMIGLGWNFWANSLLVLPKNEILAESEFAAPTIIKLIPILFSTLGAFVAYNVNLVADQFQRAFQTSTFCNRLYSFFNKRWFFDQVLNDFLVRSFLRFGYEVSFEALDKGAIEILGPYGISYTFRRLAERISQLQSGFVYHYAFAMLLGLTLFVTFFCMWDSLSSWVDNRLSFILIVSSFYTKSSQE

No constants are given. Whether binding was seen depends on the method and setting. A result given as binding can be weak or reduced; the word gives no strength.

Consider “complex I subunit P9 (from UniProt F4HTR4)”, for which the binding result in assay [1] and in assay [2] was “binds” in each case.
For the substance complex I-ferredoxin (C1-FDX), the binding entry in assay [3] and in assay [4] was “binds” each time.

The record behind these values is paper PMC9873573, “Cryo-EM structure of the respiratory I + III2 supercomplex from Arabidopsis thaliana at 2 Å resolution” (Nature Plants, 2022).
